# Measurements from PMC5156329.
# No constants are given. Whether binding was seen depends on the method and setting. Binding seen in cells or lysates may run through a third protein. Some entries that bind do so weakly or less than the wild type. Tags and fused reporters may be left off the sequences shown.
# T1: KSHV ORF57-eGFP (Kaposi's sarcoma-associated herpesvirus (KSHV)) (UniProt Q2HR75)
# T1 sequence: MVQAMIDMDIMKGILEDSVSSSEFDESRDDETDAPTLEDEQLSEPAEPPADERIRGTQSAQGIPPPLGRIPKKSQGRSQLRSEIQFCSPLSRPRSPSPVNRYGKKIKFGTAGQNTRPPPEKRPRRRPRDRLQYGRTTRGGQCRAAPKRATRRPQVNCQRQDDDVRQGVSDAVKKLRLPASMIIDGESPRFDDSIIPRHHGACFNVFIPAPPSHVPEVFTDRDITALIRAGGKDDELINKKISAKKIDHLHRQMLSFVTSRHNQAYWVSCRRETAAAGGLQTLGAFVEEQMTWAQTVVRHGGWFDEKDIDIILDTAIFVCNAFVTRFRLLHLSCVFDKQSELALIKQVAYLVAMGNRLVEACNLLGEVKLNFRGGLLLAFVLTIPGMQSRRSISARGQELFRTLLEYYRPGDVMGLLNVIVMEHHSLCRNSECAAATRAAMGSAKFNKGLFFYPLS
# Target: T1, KSHV ORF57-eGFP (Kaposi's sarcoma-associated herpesvirus (KSHV))
# Assay: co-IP; lysates of HEK-293T cells transfected 24 h with ORF57-eGFP or eGFP, incubated with GFP-trap agarose beads; RNase A (0.01 U ml^-1) added to the lysates; Western blot of endogenous partners
binder,measurement,value
"CIP29 (protein, UniProt P82979 1-210) MATETVELHKLKLAELKQECLARGLETKGIKQDLIHRLQAYLEEHAEEEANEEDVLGDETEEEETKPIELPVKEEEPPEKTVDVAAEKKVVKITSEIPQTERMQKRAERFNVPVSLESKKAARAARFGISSVPTKGLSSDNKPMVNLDKLKERAQRFGLNVSSISRKSEDDEKLKKRKERFGIVTSSAGTGTTEDTEAKKRKRAERFGIA",binding,binds
